In PubChem BioAssay AID2685 (National Center for Advancing Translational Sciences (NCATS), 2010):
Some of the results follow. Further columns of the screen follow, without active or inactive calls. Compounds called inactive in the main read-out are mostly missing here. Words in brackets tell the shape of the fitted curve; partial curves, single points and poor fits give uncertain potencies.

Assay: qHTS Assay for Lipid Storage Modulators in Drosophila S3 Cells;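 as to cell number change: cells counted by Cell Tracker Red CMTPX staining in the red channel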
Details: BODIPY lipid droplet fluorescence, 18-24 h; for cell number change: measured here: cell count max response, cells fed with added oleic acid
In short: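 Drosophila S3 cells loaded with oleic acid (400 uM, as added) and compounds at several concentrations; lipid droplets imaged by 488-nm laser-scanning cytometry, 500–530 nm intensity and object ratio to cell channel. Percent activity normalized to 20 uM Triacsin C.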

[1] = measured here: lipid fluorescence (Fed channel) AC50, cells fed with added oleic acid
[2] = measured here: cell number channel AC50, cells fed with added oleic acid

Structure (SMILES) | AC50 [1] | cell number change [%] | AC50 [2]
COc1ccc(-n2c(C)nc3cc(C(=O)N4CCOCC4)ccc32)cc1 | 2.31 µM [falling, partial curve] | – | –
C/C(=N\NC(=S)Nc1c(C)cccc1C)c1cc2ccccc2o1 | – | 10 | –
O=C(CCN1CCN(c2ccccc2)CC1)Nc1cccc(Br)c1 | 6.51 µM [rising, full curve] | 23.6 | –
Cc1ccc(SCc2c(-c3ccccc3)nn(C)c2Cl)cc1 | 20.6 µM [rising, partial curve] | -15 | –
CC1(NC(=O)Nc2ccccc2)CCS(=O)(=O)C1 (stereo not given) | 0.00651 µM [falling, full curve, poor fit] | -13.2 | –
CCn1c(SCC(=O)Nc2oc(-c3ccccc3)c(-c3ccccc3)c2C#N)nnc1-c1ccco1 | – | 45.2 | 13 µM [rising, partial curve, poor fit]
CN(C)CCCNc1nc(N)c([N+](=O)[O-])c(NCc2ccccc2)n1 | – | – | 1.64 µM [rising, partial curve, poor fit]
CN(C)CCCN(C(=O)c1cc(Cl)sc1Cl)c1nc2cc3c(cc2s1)OCO3 | 25.9 µM [rising, partial curve] | 42.7 | 29.1 µM [rising, single point]
CCOC(=O)c1c(C)[nH]c(C(=O)CN2CCOCC2)c1C | – | – | 2.06 µM [rising, partial curve]
CCCc1nc2n[nH]c(N)c2c2c1CCC2 | 2.31 µM [rising, partial curve, poor fit] | -8.16 | –
COC(=O)c1ccc(NC(=O)CNCc2ccncc2)cc1 | 11.6 µM [falling, partial curve, poor fit] | – | –
Cc1ccc2oc3c(c(=O)c2c1)C(c1cccc(O)c1)N(c1ccccn1)C3=O (stereo not given) | 18.4 µM [falling, partial curve] | – | –
O=C(NCn1ccc(=O)[nH]c1=S)c1ccccc1 | 0.146 µM [falling, full curve, poor fit] | -64.8 | 29.1 µM [falling, single point]
COc1cc(/C=C2\C(=N)N3N=C(S(C)(=O)=O)SC3=NC2=O)cc(OC)c1OCCOc1ccccc1C | 29.1 µM [falling, single point] | -37.8 | 29.1 µM [falling, single point]
Fc1cccc(CCN2CCNC[C@@H]2c2ccccc2)c1 | 5.8 µM [falling, partial curve, poor fit] | 12.8 | 3.26 µM [falling, single point]
O=C(NCc1ccc2c(c1)OCO2)C1CCCN(S(=O)(=O)c2cccc3nonc23)C1 (stereo not given) | 0.731 µM [rising, partial curve, poor fit] | 24.1 | 1.16 µM [rising, full curve, poor fit]
COc1ccccc1-c1n[nH]c2c1[C@H](C)CC[C@H]2C(C)C | 29.1 µM [falling, single point] | -16.7 | –
Cc1cccc(C)c1NC(=S)N/N=C/c1ccc(OCCC(C)C)cc1 | 29.1 µM [rising, single point] | -27.4 | –

Structure (SMILES) | AC50 [1] | cell number change [%] | AC50 [2]
CCc1cc(=O)[nH]c(SCCc2ccccc2)n1 | – | 2.8 | –
COc1ccc(/C=N/Nc2c(Cl)cc(Cl)cc2Cl)cc1CN1CCOCC1 | 18.4 µM [falling, single point] | -7.9 | –
Cc1ccc(N2C(=O)CC(Nc3ccc(Cl)c(S(=O)(=O)N(C)C)c3)C2=O)c(C)c1 (stereo not given) | 0.116 µM [rising, single point] | – | –
Cc1ccc(C(=O)/C=C/c2cn(CN3CCN(C)CC3)c3ccccc23)cc1 | 0.58 µM [rising, single point] | -69.5 | –
Cn1nc(C(F)(F)F)c(-c2ccc(Br)cc2)c1NC(=O)Nc1ccc(F)cc1F | 29.1 µM [falling, single point] | -55.8 | 29.1 µM [falling, single point]
COc1ccccc1CNC(=O)CN1CCC(NC(=O)c2ccccc2F)CC1 | – | -12.4 | –
COc1cccc(N2CCN(c3ccc4nnc(CCC(=O)Nc5ncccc5C)n4n3)CC2)c1 | 6.51 µM [falling, single point] | -6.87 | –
COc1ccc(N2C(=O)CC(N(CCc3ccccc3)C(=O)/C=C/C(=O)O)C2=O)cc1 (stereo not given) | 0.0058 µM [rising, full curve, poor fit] | – | –
CCCCCNC(=O)C1CC(=O)OC12CCCCC2 (stereo not given) | 32.6 µM [rising, single point] | 31.6 | –
O=C(Nc1cccnc1)c1sc(Nc2ccccc2)nc1-c1ccccc1 | 4.61 µM [rising, partial curve] | – | –
Cc1cc(C)n(-c2nc(C)nc(NCc3ccccc3)n2)n1 | 0.058 µM [rising, full curve] | 16.6 | 0.0206 µM [rising, full curve, poor fit]
Cc1cc2occ(CC(=O)N(C)CC(=O)Nc3cccc(F)c3)c2cc1C | – | -23.8 | –
NC(=O)CC(NC(=O)Cc1cccc2ccccc12)c1ccc(N2CCN(c3ccccc3)CC2)c([N+](=O)[O-])c1 (stereo not given) | 7.31 µM [rising, partial curve, poor fit] | 16.3 | –
CCCc1ccc(C(=O)NC(=O)c2ccccc2O)cc1 | 2.31 µM [falling, full curve] | -53.4 | 5.8 µM [falling, full curve]
CCCNC(=O)C1CC(c2cccc(F)c2)=NO1 (stereo not given) | – | 35.4 | 1.84 µM [rising, partial curve, poor fit]
Cc1nn(C)c(C(=O)N/N=C/c2ccc(C(F)(F)F)cc2)c1[N+](=O)[O-] | 0.58 µM [falling, full curve] | -44.2 | 25.9 µM [falling, single point]
O=C(CSc1nnc(-c2ccc(OC(F)F)cc2)o1)N1CCOCC1 | 11.6 µM [rising, single point] | 37.8 | 14.6 µM [rising, partial curve, poor fit]
CCC1CCCCN1CCCNC(=O)CN1C(=O)CSc2ccc(S(=O)(=O)N3CCOCC3)cc21 (stereo not given) | 6.51 µM [rising, single point] | 3.36 | –

Laid out differently: two of the compounds above.
Structure (SMILES)	AC50 [1]	cell number change [%]	AC50 [2]
COc1ccc(-n2c(C)nc3cc(C(=O)N4CCOCC4)ccc32)cc1	2.31 µM [falling, partial curve]	–	–
CCC1CCCCN1CCCNC(=O)CN1C(=O)CSc2ccc(S(=O)(=O)N3CCOCC3)cc21 (stereo not given)	6.51 µM [rising, single point]	3.36	–
